Measurements reported in patent publication US10647687B2, “Spiropyrazine derivatives as inhibitors of non-apoptotic regulated cell-death” (Helmholtz Zentrum München Deutsches Forschungszentrum für …, priority 2014, dated 2020).

tested on: Pfa1 cells; assay: Cellular toxicity, Pfa1 cells without TAM (Example B.5); assay type: cell-based, mouse; conditions: TC50 divided by the corresponding IC50 from example B.4 (Pfa1/TAM)
Text: An estimate of the toxicity for compounds disclosed herein was obtained by using the same assay as described in Example B.4, but without the addition of TAM. […] Such TC50 values obtained for certain compounds disclosed herein, together with an approximate therapeutic window (estimated by dividing each TC50 by the corresponding IC50 determined from example B.4) are shown in Table 3 and Table 4.

| Compound | Therapeutic Window (approx.. fold) [fold] |
| --- | --- |
| CC(C)(C)c1ccc(CNC2=Nc3ccccc3NC23CCOCC3)cc1 [O/S-350] | >100 |
| Fc1cccc(F)c1CNC1=Nc2ccccc2NC12CCSCC2 [O/S-351] | >100 |
| c1ccc(C(CNC2=Nc3ccccc3NC23CCOCC3)c2ccccc2)cc1 [O/S-352] | >50 |
| CC(CCc1ccccc1)NC1=Nc2ccccc2NC12CCOCC2 (stereo not shown) [O/S-353] | >50 |
| Clc1ccc(CNC2=Nc3ccccc3NC23CCOCC3)c(Cl)c1 [O/S-354] | >200 |
| Fc1ccc(CNC2=Nc3ccccc3NC23CCOCC3)c(F)c1 [O/S-355] | >20 |
| c1ccc(CCCNC2=Nc3ccccc3NC23CCSCC3)cc1 [O/S-356] | >20 |
| Cc1cc(C)cc(CNC2=Nc3ccccc3NC23CCSCC3)c1 [O/S-357] | >20 |
| c1ccc(CCCCNC2=Nc3ccccc3NC23CCOCC3)cc1 [O/S-358] | >5 |
| Fc1ccc(CNC2=Nc3ccccc3NC23CCSCC3)c(F)c1 [O/S-359] | >5 |
| O=S1(=O)CCC2(CC1)Nc1ccccc1N=C2NCc1ccccc1 [O/S-363] | >5 |
| FC1(F)Oc2cc3c(cc2O1)NC1(CCOCC1)C(NCc1ccccc1)=N3 [O/S-366] | >200 |
| CC(NC1=Nc2ccccc2NC12CCSCC2)c1ccccc1 (stereo not shown) [O/S-367] | >20 |
| c1ccc(CCNC2=Nc3ccccc3NC23CCSCC3)cc1 [O/S-368] | >10 |
| Cc1cc2c(cc1C)NC1(CCSCC1)C(NCc1ccccc1)=N2 [O/S-369] | >100 |
| O=S1(=O)CCC2(CC1)Nc1ccccc1N=C2NCc1cccc(Cl)c1 [O/S-370] | >20 |
